Measurements taken from PubChem BioAssay AID1671190 (National Center for Advancing Translational Sciences (NCATS), 2021).
The whole screen tested about 580,000 compounds, of which about 6,100 (1.1%) were called active. The inconclusive results got no clear call from the source; some entries with a clear call stand among them for comparison. The call rests on the fitted dose curve; in most records, active means well fitted inhibition curve with a large enough effect; inconclusive means small, poorly fitted or top-dose-only effect, or another doubt; inactive means no such curve, though single readings can be large or run the other way. Potencies beside an inconclusive call are fits to weak or partial responses and may not hold up.

Sequences of proteins named here, by UniProt entry; tags and fusion partners are left off.
UniProt P18054, whole entry, looked up: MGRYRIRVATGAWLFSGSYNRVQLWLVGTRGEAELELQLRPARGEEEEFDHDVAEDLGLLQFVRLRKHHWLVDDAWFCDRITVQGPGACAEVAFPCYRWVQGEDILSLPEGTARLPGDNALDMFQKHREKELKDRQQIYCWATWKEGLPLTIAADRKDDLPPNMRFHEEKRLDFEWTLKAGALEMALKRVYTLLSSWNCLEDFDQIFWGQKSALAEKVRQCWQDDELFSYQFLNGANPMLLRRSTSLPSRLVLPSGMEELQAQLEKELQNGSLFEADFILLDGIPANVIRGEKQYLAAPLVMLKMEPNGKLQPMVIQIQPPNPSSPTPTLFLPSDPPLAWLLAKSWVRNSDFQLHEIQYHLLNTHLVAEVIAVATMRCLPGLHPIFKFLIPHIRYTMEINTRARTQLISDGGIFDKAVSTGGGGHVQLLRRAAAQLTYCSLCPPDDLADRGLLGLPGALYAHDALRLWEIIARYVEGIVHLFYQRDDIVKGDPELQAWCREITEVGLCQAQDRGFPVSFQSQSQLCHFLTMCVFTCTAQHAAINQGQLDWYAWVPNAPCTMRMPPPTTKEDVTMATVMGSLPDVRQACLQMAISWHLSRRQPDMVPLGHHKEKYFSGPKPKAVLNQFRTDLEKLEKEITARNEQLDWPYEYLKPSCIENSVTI

Target: Polyunsaturated fatty acid lipoxygenase ALOX12 (Homo sapiens) (UniProt P18054)
Assay: Primary qHTS assay for inhibitors of human arachidonate 12S-lipoxygenase (ALOX12): Round 2
Settings: purified 12hLO, xylenol orange hydroperoxide absorbance; activity change, negative = inhibition: at 108 µM (top of the series) unless noted
Procedure, shortened: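 Purified human 12hLO (150 nM final) in 25 mM Hepes, 0.01% Triton X-100, pH 7.0 was preincubated 15 min at room temperature with compound. Then 40 uM arachidonic acid was added, 30 min. Hydroperoxide was read by Fe-XO absorbance ratio 573/405 nm.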
On the % scale 0 is the no-effect control and ±100 the full control effect; potency means the concentration at half of the fitted maximal effect.

Compound | Potency | activity change, negative = inhibition
COc1ccc(-c2oc3c(c2-c2cnc(OC)nc2)C(O)CC3)cc1 (stereo unspecified) | inconclusive: 44.7 µM [inhibitor, partial curve, poor fit] | –
Fc1ccc(-c2nnc(CCl)o2)cc1 | inconclusive: 0.708 µM [inhibitor, full curve, poor fit] | –
CC(C)c1cc(C(=O)Nc2ccc(C(=O)N(C)C)cc2)c2ccccc2n1 | inactive | –
CCNC(=S)NNC(=O)c1cc(C)on1 | inactive | –
C=CCOC(=O)C1=C(C)NC(SCC(N)=O)=C(C#N)C1c1cccs1 (stereo unspecified) | inactive | –
COc1c(/C=N/Nc2ccc([N+](=O)[O-])cc2[N+](=O)[O-])c(C)nn1-c1ccccc1 | inactive | –
O=C(N[C@H]1/C=C\[C@@H](O)CCCC1)OCc1ccccc1 | inconclusive: 56.2 µM [inhibitor, single point] | –
CCCCCCCCN1C(=O)[C@H](CC(=O)NCc2ccc(C)o2)C[C@@]2(C(=O)OCC)CCC=C12 | inconclusive: 56.2 µM [inhibitor, partial curve, poor fit] | –
N#CC1=C(N)NC(SCC(=O)c2ccc(Cl)cc2)=C(C#N)C12CCCC2 | inconclusive: 3.98 µM [inhibitor, full curve] | –
COc1cccc(CN2CC3(C2)C(=O)N(Cc2ccccc2Cl)C(=O)[C@@H]2C[C@@H](O)CN23)c1 | inactive | –
CCCCc1cc(C[C@@H]2C[C@H](NC(=O)c3cccc(F)c3)C2(C)C)no1 | inactive | –
COc1ccc(-c2n[nH]c3c2C(c2ccc(O)cc2)N(c2ccc(Br)cc2)C3=O)cc1 (stereo unspecified) | inconclusive: 141 µM [inhibitor, partial curve, poor fit] | –
O=[N+]([O-])c1cc(C(F)(F)F)ccc1NCCNC(=S)Nc1ccc(Cl)cc1 | active: 39.8 µM | –
CC(=O)c1cccc(NC(=O)N2CCCCCC2)c1 | inactive | –
C[n+]1c(/C=C/c2ccc(O)cc2)ccc2ccccc21 | active: 35.5 µM | –
O=C(CCl)N1CC=C(c2ccccc2)CC1 | inconclusive: 31.6 µM [inhibitor, partial curve] | –
Cn1c(-c2sc3cc(C(F)(F)F)cnc3c2-c2ccccc2)n[nH]c1=S | inconclusive: 44.7 µM [inhibitor, single point] | –
CCCNC(=O)CN(C)C(=O)c1cc2ccccc2n1CC | inconclusive: 0.501 µM [inhibitor, full curve, poor fit] | –
O=C(N/N=C/c1ccc(-c2ccccc2[N+](=O)[O-])o1)c1cncc(Br)c1 | inactive | –
O=S(=O)(c1cc(F)ccc1F)N1CCN(c2ncnc3ccccc23)CC1 | inconclusive: 50.1 µM [inhibitor, partial curve, poor fit] | –
COc1ccccc1NC(=O)c1cc2c(n1C)CCN(Cc1cccc(C)c1)C2 | inactive | –
COc1ccc(C2=NN(C(=O)c3cccs3)C(c3ccc(OC)cc3)C2)cc1 (stereo unspecified) | inconclusive: 39.8 µM [inhibitor, partial curve] | –

Compound | Potency | activity change, negative = inhibition
O=C(Cc1ccc(F)cc1)N1CCC2(CC1)NC(=O)N(c1ccccc1Cl)N2 | active: 1.26 µM | –
CCOC(=O)c1c(NC(=S)NC(=O)c2ccc(Cn3cc(Cl)cn3)o2)sc2c1CCCCC2 | inconclusive: 15.8 µM [inhibitor, partial curve, poor fit] | –
O=C(NC1CCCCCC1)c1ccc2c(c1)sc1nc(-c3ccccc3)cn12 | inactive | –
COc1ccc(N2C(=O)/C(=C\c3ccco3)N=C2SCC(N)=O)cc1Cl | inconclusive: 44.7 µM [inhibitor, partial curve, poor fit] | –
CCCC1=Nc2cc(C(=O)NCCCN3CCCCC3CC)ccc2Sc2ccc(C)cc21 (stereo unspecified) | inconclusive: 100 µM [inhibitor, single point] | –
CCc1cc(C(c2ccccc2Cl)N2CCN(C)CC2)c(NC(=O)c2ccco2)s1 (stereo unspecified) | inconclusive: 44.7 µM [inhibitor, partial curve, poor fit] | –
CCCCCn1c(CNC(=O)c2cccs2)nc2ccccc21 | inactive | –
COc1ccc(N2CCC(CNC(=S)Nc3cc(C)cc(C)c3)C2)cc1 (stereo unspecified) | inconclusive: 50.1 µM [inhibitor, partial curve, poor fit] | –
Cc1cccc(-n2c(C)nc3sccc3c2=O)c1 | inconclusive: 39.8 µM [inhibitor, partial curve, poor fit] | –
CCN(C(=O)CCN1C(=O)/C(=C/c2ccccc2)SC1=S)C1CCS(=O)(=O)C1 (stereo unspecified) | inactive | –
C/C(=N\N1CCN(C2c3ccccc3-c3ccccc32)CC1)c1cccnc1 | inactive | –
O=C(NCC(c1ccccc1)c1ccccc1)c1cc2ccccc2[nH]1 | inactive | –
O=C(c1cccnc1)N1CC[C@H](c2nc3ccccc3s2)C1 | inconclusive: 14.1 µM [inhibitor, partial curve, poor fit] | –
O=C(O)C1CCN(Cc2ccccn2)CC1 | inconclusive: 7.94 µM [inhibitor, full curve, poor fit] | –
CCOC(=O)[C@]12CCCC=C1N(Cc1ccco1)C(=O)[C@H](CC(=O)NCC13CC4CC(CC(C4)C1)C3)C2 | inconclusive: 112 µM [inhibitor, single point] | –
Cc1cccc(C(=O)N2CCN(S(=O)(=O)N3CCCCCC3)CC2)c1 | inactive | –
COC(=O)C1=C(C)N(Cc2ccco2)C(=O)/C1=C\c1ccc([N+](=O)[O-])cc1 | inconclusive: 44.7 µM [inhibitor, partial curve, poor fit] | –
N#Cc1cccc(C(=O)OCc2cccnc2)c1 | inconclusive: 50.1 µM [inhibitor, partial curve, poor fit] | –
Nc1cccc(OCCc2ccccn2)c1 | inconclusive: 7.94 µM [inhibitor, full curve, poor fit] | –
Cc1nc(NC(=O)c2ccccc2)sc1-c1csc(Nc2ccccc2)n1 | inconclusive: 141 µM [inhibitor, partial curve, poor fit] | –
CCN(Cc1ccco1)C(=O)c1cc2cc(C)ccc2[nH]1 | inconclusive: 15.8 µM [inhibitor, partial curve, poor fit] | –
CCCn1cnc2nc(CSc3ccccc3NC(=O)c3ccccc3C)cc(=O)n21 | inconclusive: 39.8 µM [inhibitor, partial curve, poor fit] | –

Compound | Potency | activity change, negative = inhibition
Cc1sc2nc(CSCC(=O)N(CCC#N)c3ccccc3F)[nH]c(=O)c2c1C | inconclusive: 50.1 µM [inhibitor, partial curve, poor fit] | –
OCCCCCCCCCCCCCCCO | inconclusive: 112 µM [inhibitor, single point] | –
CCCOc1cccc(C2C(C(=O)c3cccs3)=C(O)C(=O)N2CCN2CCOCC2)c1 (stereo unspecified) | inconclusive: 25.1 µM [inhibitor, partial curve, poor fit] | –
Cc1ccc(N(CC(=O)NCCN2CCOCC2)S(=O)(=O)c2ccc(Cl)cc2)cc1C | inconclusive: 50.1 µM [inhibitor, partial curve, poor fit] | –
COc1ccccc1Nc1nn2c(=O)c3ccc(C(=O)NCc4ccc(F)cc4)cc3nc2s1 | inconclusive: 50.1 µM [inhibitor, partial curve, poor fit] | –
COc1ccc(NC(=O)c2c(C)oc3ccc(O)c(CN4CCC(C)CC4)c23)cc1 | – | inconclusive: -56% [inhibitor]
COc1cc(C=C(c2nc3ccccc3s2)c2nc3ccccc3s2)ccc1O | inconclusive: 35.5 µM [inhibitor, partial curve, poor fit] | –
CC(C)=CCC/C(C)=C/CNC(=O)C[C@H]1C[C@H](C(=O)N(C(C)C)C(C)C)[C@@]2(C)c3[nH]c4cc(-c5ccco5)ccc4c3CCN2C1=O | inconclusive: 44.7 µM [inhibitor, partial curve, poor fit] | –
Cc1ccc(Cl)cc1NC(=O)CCNS(=O)(=O)/C=C/c1ccccc1 | inactive | –
COc1ccc(CCNC(=O)c2ccc(CS(=O)(=O)Cc3cccc(C)c3)o2)cc1OC | inactive | –
CCOC(=O)c1sc(N/N=C/c2ccccc2)nc1C | inconclusive: 44.7 µM [inhibitor, partial curve] | –
Cc1ccc(CNCc2ccc3c(c2)OCO3)c(C)c1 | active: 44.7 µM | –
CSc1nnc2c3ccccc3c3ccccc3c2n1 | inconclusive: 112 µM [inhibitor, single point] | –
CNC(=O)c1ccc(OCc2coc(-c3ccc(F)cc3)n2)cc1 | inconclusive: 44.7 µM [inhibitor, partial curve, poor fit] | –
O=S(=O)(NC[C@H]1O[C@@H](CO)[C@@H](O)[C@H]1N1CCN(c2ccccn2)CC1)c1ccccc1 | inconclusive: 10 µM [inhibitor, partial curve, poor fit] | –
O=C(Nc1ccc2nc[nH]c(=O)c2c1)c1cc(Br)ccc1Cl | inconclusive: 141 µM [inhibitor, single point] | –
COC(=O)C1=NNC2(C)C(=O)N(c3ccc(C)cc3)C(=O)C12 (stereo unspecified) | inconclusive: 39.8 µM [inhibitor, partial curve, poor fit] | –
CCOc1ccccc1NC(=O)c1ccc2ccccc2n1 | inconclusive: 10 µM [inhibitor, full curve] | –
N#CC(=Cc1ccnc2ccccc12)c1ccccc1 | inconclusive: 89.1 µM [inhibitor, partial curve, poor fit] | –
O=c1cn[nH]c2ccccc12 | inconclusive: 35.5 µM [inhibitor, single point] | –
CC(C(=O)NCc1ccco1)N1CCN(CC(=O)NC2CC2)CC1 (stereo unspecified) | inconclusive: 35.5 µM [inhibitor, partial curve, poor fit] | –
Cc1ccc(C)c(S(=O)(=O)N2CCN(C3CCN(CCc4ccccc4)C3=O)CC2)c1 (stereo unspecified) | inconclusive: 28.2 µM [inhibitor, partial curve, poor fit] | –

Single records (already shown).
O=c1cn[nH]c2ccccc12 is entered as Potency: inconclusive: 35.5 µM [inhibitor, single point]
Cc1ccc(Cl)cc1NC(=O)CCNS(=O)(=O)/C=C/c1ccccc1 is entered as Potency: inactive
